# Results reported in the supplement of paper PMC5770031.
# Some of the results follow. Repeats in this data set agree poorly, so a single value says little.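 Flies heterozygous for the ATM8 allele over a balancer chromosome carrying normal ATM were mated with each other on treated food. Parents laid eggs for 5–6 days and the young then developed for about 12 days, so both parents and larvae ate the compound. The read-out is the share of all emerged adults that carry two ATM8 copies, compared with 2% DMSO control vials. The paper called compounds neutral at 10–20% such offspring, harmful below 10%, and helpful above 20%.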 Numbered stars: 1 amine (or outer) side, 2 acyl side, 3 side chain; on linkers, the order of the positions; unused ones are H or OH. Bridge positions count the residues as written; N and C are the ends. Square brackets hold non-standard residues; d marks the D form. Peptide text beside a SMILES is read from it. * marks the point of attachment. X1 = NC1=N[C@@H]([C@H](N[*:1])C(=O)[*:2])C[C@H](O)N1; ΔAla(Z-3-ureido) = NC(=O)N/C=C(\N)C(=O)O; β3hOrn = NCCC[C@H](N)CC(=O)*; Dap = NC[C@H](N)C(=O)O
# Test system: Drosophila melanogaster ATM8 (temperature-sensitive ATM allele)
# Test: fraction of eclosed F1 progeny that are homozygous ATM8 (rescue of developmental lethality); higher = more rescue of ATM8 developmental lethality; extreme values may be limits of the assay
# Details: compound concentration applied to food 0.2 mM; 21 °C
row,SMILES,fraction of eclosed F1 progeny that are homozygous ATM8
1,CCOc1ccc(NC(C)=O)cc1,0.12
2,CC(=O)O[C@H]1CC[C@]2(C)[C@H]3C(=O)C=C4[C@@H]5C[C@@](C)(C(=O)O)CC[C@]5(C)CC[C@@]4(C)[C@]3(C)CC[C@H]2C1(C)C,0.115
3,COc1cc(OC)c(-c2c(OC)cc(OC)cc2OC)c(OC)c1,0.244
4,C#C[C@]1(O)CC[C@H]2[C@@H]3CCC4=C(CCC(=O)C4)[C@H]3CC[C@@]21C,0.143
5,CCOC(=O)[N-]c1c[n+](N2CCOCC2)no1,0
6,CC[N+](CC)(CC)CCOc1cccc(OCC[N+](CC)(CC)CC)c1OCC[N+](CC)(CC)CC,0.0816
7,COc1ccc2c(c1)O[C@@H]1COc3cc(OC)c(OC)cc3[C@@H]1C2=O,0.0909
8,CC(C)(C)NCC(O)c1cc(O)cc(O)c1 (stereo not given),0.139
9,COC1=C(CC=C(C)C)C(=O)c2ccccc2C1=O,0.171
10,CNC(C)(C)Cc1ccccc1,0.315
11,CCOP(=S)(OCC)Oc1cc(C)nc(C(C)C)n1,0.143
12,CN[C@@H]1[C@H](O[C@H]2[C@H](O[C@H]3[C@H](O)[C@@H](O)[C@H](NC(=N)N)[C@@H](O)[C@@H]3NC(=N)N)O[C@@H](C)[C@]2(O)CO)O[C@@H](CO)[C@H](O)[C@H]1O,0.087
13,NCc1ccc(S(N)(=O)=O)cc1,0.279
14,CCc1oc2ccccc2c1C(=O)c1cc(Br)c(O)c(Br)c1,0.25
15,CC/C(=C(\c1ccccc1)c1ccc(OCCN(C)C)cc1)c1ccccc1,0.159
16,COc1cc2oc3cc(OC)c(OC)c(CC=C(C)C)c3c(=O)c2c(OC)c1CC=C(C)C,0.243
17,O=c1c(O)c(-c2ccc(O)c(O)c2)oc2cc(O)cc(O)c12,0.0938
18,CC(=O)Nc1cccc(O)c1,0.2
19,Cc1cnc(C(=O)O)c[n+]1[O-],0.087
20,O=C(O)C1(C(=O)O)CCC1.[NH2-].[NH2-].[Pt+2],0.114
21,CC1=C(C/C=C(\C)CCC[C@H](C)CCC[C@H](C)CCCC(C)C)C(=O)c2ccccc2C1=O,0.0833
22,Cc1ncc(COP(=O)([O-])[O-])c(CN(CCN(CC(=O)O)Cc2c(COP(=O)([O-])O)cnc(C)c2O)CC(=O)O)c1O.[Mn].[Na+].[Na+].[Na+],0.222
23,CC1CCCC(C)N1 (stereo not given),0.0893
24,CC(C)(C)NC[C@H](O)COc1ccccc1C1CCCC1,0.05
25,COc1ccc(C(=O)c2ccccc2O)c(O)c1,0.0968
26,COCCc1ccc(OCC(O)CNC(C)C)cc1 (stereo not given),0.0417
27,Nc1nc2[nH]cc(CCc3ccc(C(=O)N[C@@H](CCC(=O)O)C(=O)O)cc3)c2c(=O)[nH]1,0.0909

row,SMILES,fraction of eclosed F1 progeny that are homozygous ATM8
1,COc1cc2c(cc1C=O)OCO2,0.0938
2,OCc1ccccn1,0.315
3,COc1ccc(CN2CCN(C(c3ccc(F)cc3)c3ccc(F)cc3)CC2)c(OC)c1OC,0.0571
4,CC(C)Cc1ccc(C(C)C(=O)O)cc1 (stereo not given),0.149
5,C[C@@]1(O)CCOC(=O)C1,0.235
6,CN1CCN(c2cc3c(cc2F)c(=O)c(C(=O)O)cn3-c2ccc(F)cc2)CC1,0.0714
7,O=C(O)CCCC[C@@H]1SC[C@@H]2NC(=O)N[C@@H]21,0.0822
8,COc1ccc(C(CN(C)C)C2(O)CCCCC2)cc1 (stereo not given),0.113
9,CC(=O)SCC(Cc1ccccc1)C(=O)NCC(=O)OCc1ccccc1 (stereo not given),0.0732
10,C[C@H](CCC(=O)O)[C@H]1CC[C@H]2[C@@H]3CC[C@@H]4C[C@H](O)CC[C@]4(C)[C@H]3CC[C@]12C,0.0741
11,COC(=O)C1=C(C)NC(C)=C(C(=O)OC(C)C)C1c1cccc2nonc12 (stereo not given),0.0926
12,CC1(C)CCC2=C(O1)c1ccccc1C(=O)C2=O [beta-LAPACHONE],0.389
13,CC(=O)OCC[N+](C)(C)C,0.0625
14,O=C(O)c1nc2cc(Cl)c(Cl)cc2nc1O,0
15,CC(=O)O[C@H]1C[C@@H](OC(C)=O)C(C)(C)C2CC(=O)[C@]3(C)C(CC[C@@]4(C)[C@H](c5ccoc5)OC(=O)[C@H]5O[C@]543)[C@]21C (stereo not given in full),0.0943
16,OCCN1C[C@H](O)[C@@H](O)[C@H](O)[C@H]1CO,0.154
17,CC(C)C(=O)Nc1ccc([N+](=O)[O-])c(C(F)(F)F)c1,0.0645
18,Cn1cnc([N+](=O)[O-])c1Sc1ncnc2[nH]cnc12,0.16
19,COc1cc2c(cc1OC)-c1c(oc3c4c(ccc3c1=O)OC(C(C)C)C4)CO2 (stereo not given),0.122
20,NCC[C@H](O)C(=O)N[C@@H]1C[C@H](N)[C@@H](O[C@H]2O[C@H](CN)[C@@H](O)[C@H](O)[C@H]2O)[C@H](O)[C@H]1O[C@H]1O[C@H](CO)[C@@H](O)[C@H](N)[C@H]1O,0.114
21,COc1ccc2c(c1)OC[C@@H](Cc1ccc(OC)c(OC)c1)[C@H]2O,0.208
22,Cc1cc2nc3c(=O)[nH]c(=O)nc-3n(CC(O)C(O)C(O)COP(=O)(O)O)c2cc1C (stereo not given),0.263
23,COc1cc(/C=C/C(=O)CC(=O)/C=C/c2ccc(O)c(OC)c2)ccc1O,0.25
24,O=C(O)CSCC(=O)NC1CCSC1=O (stereo not given),0.0889
25,CNC(=O)Oc1ccc2c(c1)[C@]1(C)CCN(C)[C@@H]1N2C,0
26,CC(C)=CCOc1cc2oc(=O)ccc2cc1O,0.0789
27,C/C=C1\[C@H]2C=C(C)C[C@]1(N)c1ccc(=O)[nH]c1C2,0.114

row,SMILES,fraction of eclosed F1 progeny that are homozygous ATM8
1,C[N+](C)(C)CCO.[Cl-],0
2,COc1cccc(-c2cc(=O)c3ccc(OC)cc3o2)c1,0.214
3,CN1CCC(OC(c2ccccc2)c2ccccc2)CC1,0
4,O=C(Oc1cccc2cccnc12)c1ccccc1,0
5,CN(C)C(=O)Oc1cccc([N+](C)(C)C)c1,0.173
6,CN1[C@H]2C[C@H](OC(=O)[C@H](CO)c3ccccc3)C[C@@H]1[C@@H](O)C2,0.211
7,Cc1cc(O)c2c(c1)C(=O)c1cc(O)cc(O)c1C2=O,0.0889
8,Nc1nc(O)c2ncn(CCC(CO)CO)c2n1,0.176
9,Fc1ccc([C@@H]2CCNC[C@H]2COc2ccc3c(c2)OCO3)cc1,0.271
10,CN(C/C=C/C#CC(C)(C)C)Cc1cccc2ccccc12,0
11,O=C(NC1CCCCC1)NC1CCCCC1,0.0789
12,NCCC[C@H](N)CC(=O)N[C@H]1CNC(=O)[C@H]([C@H]2C[C@H](O)NC(N)=N2)NC(=O)/C(=C/NC(N)=O)NC(=O)[C@H](CO)NC(=O)[C@H](CO)NC1=O (β3hOrn-[Dap]SS[ΔAla(Z-3-ureido)][X1]; lactam 1-C),0.0476
13,NC(CO)C(=O)NNCc1ccc(O)c(O)c1O (stereo not given),0.135
14,C=C1CCC2C(CC2(C)C)C(=O)CCC1O (stereo not given),0.04
15,C[n+]1ccccc1C=NO,0.143
16,CC[n+]1c(-c2ccccc2)c2cc(N)ccc2c2ccc(N)cc21,0.0741
17,O=C1OC(CN2CCOCC2)CN1/N=C/c1ccc([N+](=O)[O-])o1 (stereo not given),0.256
18,O=C(O)[C@]1(O)C[C@@H](O)[C@@H](O)[C@H](O)C1,0.0333
19,CNCCCN1c2ccccc2CCc2ccccc21,0.0488
20,CC1(C)C2CC(=O)[C@]3(C)C(CC[C@@]4(C)[C@H](c5ccoc5)OC(=O)[C@H]5O[C@]543)[C@@]2(C)C(=O)C[C@H]1O (stereo not given in full),0.17
21,Cc1cccc(Nc2ccccc2C(=O)O)c1C,0.231
22,CCC(C)n1ncn(-c2ccc(N3CCN(c4ccc(OCC5COC(Cn6cncn6)(c6ccc(Cl)cc6Cl)O5)cc4)CC3)cc2)c1=O (stereo not given),0.158
23,COc1ccc(/C=C/C(=O)c2cc(O)ccc2O)cc1,0.232
24,C[n+]1ccccc1/C=N/O,0.0455
25,O=C(O)CCNC(=O)c1ccc(/N=N/c2ccc(O)c(C(=O)O)c2)cc1,0.0185
26,C[C@H]1[C@H](OC(=O)CCC(=O)O)O[C@@H]2O[C@@]3(C)CC[C@H]4[C@H](C)CC[C@@H]1[C@@]24OO3,0.0784
27,C=CCSCC=C,0.174

row,SMILES,fraction of eclosed F1 progeny that are homozygous ATM8
1,NCC(=O)c1ccccc1,0.0656
2,CCOc1ccc(NC(=O)CC(C)O)cc1 (stereo not given),0.1
3,CC(=O)OCC1=C(C(=O)O)N2C(=O)[C@@H](NC(=O)Cc3cccs3)[C@H]2SC1,0.0455
4,CCN(CC)CCNC(=O)COc1ccc(OC)cc1,0.143
5,Cc1nc2n(c(=O)c1CCN1CCC(c3noc4cc(F)ccc34)CC1)CCCC2O (stereo not given),0
6,CC1(C)S[C@@H]2[C@H](NC(=O)Cc3ccccc3)C(=O)N2[C@H]1C(=O)O,0.231
7,CCCCc1nc(Cl)c(CO)n1Cc1ccc(-c2ccccc2-c2nnn[nH]2)cc1,0.222
8,COC(=O)C[C@H]1C(C)(C)[C@@H](OC(C)=O)[C@@H]2CC3C4CC(=O)O[C@@H](c5ccoc5)[C@]4(C)CCC3[C@@]1(C)C2=O (stereo not given in full),0.0508
9,C=CCCCCCCCCC(=O)O,0
10,COc1c(O)cc2oc3cc(O)c(CC=C(C)C)c(O)c3c(=O)c2c1CC=C(C)C [alpha-MANGOSTIN],0.474
11,CC1(C)C[C@@H]2C(=O)CC[C@H]3O[C@]3(C)CC[C@H]21,0.167
12,O=C1CCC(N2C(=O)c3ccccc3C2=O)C(=O)N1 (stereo not given),0.159
13,CC(C)CCCC(C)C1CCC2C3CCC4CC(O)CCC4(C)C3CCC12C (stereo not drawn) [5alpha-CHOLESTANOL],0.231
14,O=c1c(O)c(-c2ccc(O)c(O)c2)oc2c(O)c(O)cc(O)c12,0.069
15,COc1ccccc1N1CCN(CCCNc2cc(=O)n(C)c(=O)n2C)CC1,0.255
16,CC(C)[C@H](N)C(=O)O,0.0952
17,COc1ccc(-c2cc(=O)c3c(O)cc(OC)cc3o2)cc1,0.186
18,O=C(/C=C/C=C/c1ccc2c(c1)OCO2)N1CCCCC1,0.133
19,CCC(=O)OCC(=O)[C@@]1(OC(=O)CC)[C@@H](C)C[C@H]2[C@@H]3CCC4=CC(=O)C=C[C@]4(C)[C@@]3(Cl)[C@@H](O)C[C@@]21C,0.0976
20,CCN(CC)Cc1cc(Nc2ccnc3cc(Cl)ccc23)ccc1O,0.0741
21,CCN(CC)S(=O)(=O)c1ccc(C(=O)O)cc1,0.0566
22,CN1CCc2cc3c(cc2C1O)OCO3 (stereo not given),0.218
23,CC(C)NCC(O)c1cc(O)cc(O)c1 (stereo not given),0.176
24,O=C(O)CN(CCN(CC(=O)O)CC(=O)O)CCN(CC(=O)O)CC(=O)O,0.185

# Part of the list above, set out differently:
row	SMILES	fraction of eclosed F1 progeny that are homozygous ATM8
19	Cc1cnc(C(=O)O)c[n+]1[O-]	0.087
20	O=C(O)C1(C(=O)O)CCC1.[NH2-].[NH2-].[Pt+2]	0.114
21	CC1=C(C/C=C(\C)CCC[C@H](C)CCC[C@H](C)CCCC(C)C)C(=O)c2ccccc2C1=O	0.0833
22	Cc1ncc(COP(=O)([O-])[O-])c(CN(CCN(CC(=O)O)Cc2c(COP(=O)([O-])O)cnc(C)c2O)CC(=O)O)c1O.[Mn].[Na+].[Na+].[Na+]	0.222
23	CC1CCCC(C)N1 (stereo not given)	0.0893
